Experimental data published in publication PMC11850942.

The chains behind the UniProt entries cited, without tags or fusion partners.
UniProt Q04206: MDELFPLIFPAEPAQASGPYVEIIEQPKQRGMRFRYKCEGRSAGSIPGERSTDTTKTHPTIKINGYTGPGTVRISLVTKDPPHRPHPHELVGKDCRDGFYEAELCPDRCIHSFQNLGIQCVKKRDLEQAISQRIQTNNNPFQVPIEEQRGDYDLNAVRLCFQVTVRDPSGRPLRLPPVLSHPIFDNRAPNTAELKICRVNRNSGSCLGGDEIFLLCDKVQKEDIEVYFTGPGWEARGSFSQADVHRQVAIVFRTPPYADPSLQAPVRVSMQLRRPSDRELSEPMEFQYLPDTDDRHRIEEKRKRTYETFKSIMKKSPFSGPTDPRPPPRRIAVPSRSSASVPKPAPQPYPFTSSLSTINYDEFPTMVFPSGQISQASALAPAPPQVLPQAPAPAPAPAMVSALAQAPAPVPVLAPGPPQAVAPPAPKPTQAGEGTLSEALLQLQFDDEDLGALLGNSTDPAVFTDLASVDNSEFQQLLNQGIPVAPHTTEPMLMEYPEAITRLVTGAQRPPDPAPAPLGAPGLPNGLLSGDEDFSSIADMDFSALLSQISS

B1: ATF2 (protein, UniProt P15336 1-505)
chain: MKFKLHVNSARQYKDLWNMSDDKPFLCTAPGCGQRFTNEDHLAVHKHKHEMTLKFGPARNDSVIVADQTPTPTRFLKNCEEVGLFNELASPFENEFKKASEDDIKKMPLDLSPLATPIIRSKIEEPSVVETTHQDSPLPHPESTTSDEKEVPLAQTAQPTSAIVRPASLQVPNVLLTSSDSSVIIQQAVPSPTSSTVITQAPSSNRPIVPVPGPFPLLLHLPNGQTMPVAIPASITSSNVHVPAAVPLVRPVTMVPSVPGIPGPSSPQPVQSEAKMRLKAALTQQHPPVTNGDTVKGHGSGLVRTQSEESRPQSLQQPATSTTETPASPAHTTPQTQSTSGRRRRAANEDPDEKRRKFLERNRAAASRCRQKRKVWVQSLEKKAEDLSSLNGQLQSEVTLLRNEVAQLKQLLLAHKDCPVTAMQKKSGYHTADKDDSSEDISVPSSPHTEAIQHSSVSTSNGVSSTSKAEAVATSVLTQMADQSTEPALSQIVMAPSSQSQPSGS
B2: N4BP3 (protein, UniProt O15049 1-544)
chain: MATAPGPAGIAMGSVGSLLERQDFSPEELRAALAGSRGSRQPDGLLRKGLGQREFLSYLHLPKKDSKSTKNTKRAPRNEPADYATLYYREHSRAGDFSKTSLPERGRFDKCRIRPSVFKPTAGNGKGFLSMQSLASHKGQKLWRSNGSLHTLACHPPLSPGPRASQARAQLLHALSLDEGGPEPEPSLSDSSSGGSFGRSPGTGPSPFSSSLGHLNHLGGSLDRASQGPKEAGPPAVLSCLPEPPPPYEFSCSSAEEMGAVLPETCEELKRGLGDEDGSNPFTQVLEERQRLWLAELKRLYVERLHEVTQKAERSERNLQLQLFMAQQEQRRLRKELRAQQGLAPEPRAPGTLPEADPSARPEEEARWEVCQKTAEISLLKQQLREAQAELAQKLAEIFSLKTQLRGSRAQAQAQDAELVRLREAVRSLQEQAPREEAPGSCETDDCKSRGLLGEAGGSEARDSAEQLRAELLQERLRGQEQALRFEQERRTWQEEKERVLRYQREIQGGYMDMYRRNQALEQELRALREPPTPWSPRLESSKI

What was measured:
[1] = molecular target: p65(wt)-HA-miniTurbo (human) (UniProt Q04206)
[2] = molecular target: p65(wt)-HA-miniTurbo (human) (UniProt Q04206); remark: listed apart in the source

Binder	binding [1]	binding [2]
B1	binds	
B2		binds

Read-outs that look alike come from different tables or passages of the source. These are yes or no findings as the source states them, for the method shown. Binding seen in cells or lysates may run through a third protein. A yes stands for co-enrichment or nearness to the bait. Other partners may have been found.
